The list shows a part of the results.
Assays:
Assay in all cases: log2 fold change, soluble protein after heating vs DMSO (PISA); higher = thermal stabilisation; K562 cells, 10 uM, 30 min; active = over 0.2 and 3.5 SD of the protein, either way, in both replicates (recomputed)
[1] = compound: COC1=CC=C(C=C1)CN2C=CC3=C2C=C(C=C3)C(=O)NO
Procedure, shortened: (§1)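 Soluble protein was quantified by TMTpro 16plex LC-MS/MS after channel sums were equalised. It was obtained as the supernatant after 21,000xg for 90 min from pooled aliquots of K562 cells (2×10^6 cells/mL, 10 μM compound, 30 min) heated for 3 min across 48°C-58°C and extracted in PBS with 0.5% NP-40 at 4°C. Thermal stability values are relative to control samples and come from duplicates. They are given as log2 fold changes.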

Chains of the proteins cited; added tags and fusions are not shown. Lines headed by an entry give the natural chain unless they say otherwise; changes in a name come on top.
UniProt Q53GS9: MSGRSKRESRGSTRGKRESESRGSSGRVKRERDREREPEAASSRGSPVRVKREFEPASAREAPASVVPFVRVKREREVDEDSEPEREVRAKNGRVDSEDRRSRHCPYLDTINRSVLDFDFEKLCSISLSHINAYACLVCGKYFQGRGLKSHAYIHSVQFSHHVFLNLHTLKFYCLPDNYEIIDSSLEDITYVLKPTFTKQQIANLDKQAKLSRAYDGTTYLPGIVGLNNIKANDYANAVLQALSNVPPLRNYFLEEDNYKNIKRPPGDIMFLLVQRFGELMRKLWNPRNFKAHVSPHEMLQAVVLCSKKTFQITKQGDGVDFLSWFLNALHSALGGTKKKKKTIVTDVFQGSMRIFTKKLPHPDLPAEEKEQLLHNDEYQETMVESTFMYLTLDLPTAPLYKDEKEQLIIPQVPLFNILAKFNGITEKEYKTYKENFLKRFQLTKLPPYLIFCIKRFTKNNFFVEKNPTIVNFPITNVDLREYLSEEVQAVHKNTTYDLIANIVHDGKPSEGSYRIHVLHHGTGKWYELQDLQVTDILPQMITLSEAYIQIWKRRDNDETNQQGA
UniProt P10746: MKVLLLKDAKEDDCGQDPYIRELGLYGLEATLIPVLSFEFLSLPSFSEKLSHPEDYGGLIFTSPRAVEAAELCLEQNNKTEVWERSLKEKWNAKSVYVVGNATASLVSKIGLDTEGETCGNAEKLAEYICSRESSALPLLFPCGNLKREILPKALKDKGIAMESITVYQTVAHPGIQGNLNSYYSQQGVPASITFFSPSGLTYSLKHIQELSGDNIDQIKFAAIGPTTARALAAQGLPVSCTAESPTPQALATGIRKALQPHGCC
UniProt Q9NRR5, whole entry, looked up: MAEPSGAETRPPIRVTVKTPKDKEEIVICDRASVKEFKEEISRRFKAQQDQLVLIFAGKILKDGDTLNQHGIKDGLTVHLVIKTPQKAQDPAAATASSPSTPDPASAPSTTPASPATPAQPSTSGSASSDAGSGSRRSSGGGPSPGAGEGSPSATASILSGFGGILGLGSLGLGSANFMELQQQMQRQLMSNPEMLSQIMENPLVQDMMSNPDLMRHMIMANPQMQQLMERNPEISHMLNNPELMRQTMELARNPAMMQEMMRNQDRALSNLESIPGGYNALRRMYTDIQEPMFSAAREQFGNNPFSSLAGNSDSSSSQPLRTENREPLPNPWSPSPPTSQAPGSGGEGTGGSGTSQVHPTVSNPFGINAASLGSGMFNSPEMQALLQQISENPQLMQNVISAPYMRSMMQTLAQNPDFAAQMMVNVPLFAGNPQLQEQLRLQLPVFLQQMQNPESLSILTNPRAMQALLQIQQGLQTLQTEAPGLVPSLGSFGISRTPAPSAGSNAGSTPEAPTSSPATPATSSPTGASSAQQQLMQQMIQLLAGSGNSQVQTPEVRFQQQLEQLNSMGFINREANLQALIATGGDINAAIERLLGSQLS
UniProt P55072, whole entry, looked up: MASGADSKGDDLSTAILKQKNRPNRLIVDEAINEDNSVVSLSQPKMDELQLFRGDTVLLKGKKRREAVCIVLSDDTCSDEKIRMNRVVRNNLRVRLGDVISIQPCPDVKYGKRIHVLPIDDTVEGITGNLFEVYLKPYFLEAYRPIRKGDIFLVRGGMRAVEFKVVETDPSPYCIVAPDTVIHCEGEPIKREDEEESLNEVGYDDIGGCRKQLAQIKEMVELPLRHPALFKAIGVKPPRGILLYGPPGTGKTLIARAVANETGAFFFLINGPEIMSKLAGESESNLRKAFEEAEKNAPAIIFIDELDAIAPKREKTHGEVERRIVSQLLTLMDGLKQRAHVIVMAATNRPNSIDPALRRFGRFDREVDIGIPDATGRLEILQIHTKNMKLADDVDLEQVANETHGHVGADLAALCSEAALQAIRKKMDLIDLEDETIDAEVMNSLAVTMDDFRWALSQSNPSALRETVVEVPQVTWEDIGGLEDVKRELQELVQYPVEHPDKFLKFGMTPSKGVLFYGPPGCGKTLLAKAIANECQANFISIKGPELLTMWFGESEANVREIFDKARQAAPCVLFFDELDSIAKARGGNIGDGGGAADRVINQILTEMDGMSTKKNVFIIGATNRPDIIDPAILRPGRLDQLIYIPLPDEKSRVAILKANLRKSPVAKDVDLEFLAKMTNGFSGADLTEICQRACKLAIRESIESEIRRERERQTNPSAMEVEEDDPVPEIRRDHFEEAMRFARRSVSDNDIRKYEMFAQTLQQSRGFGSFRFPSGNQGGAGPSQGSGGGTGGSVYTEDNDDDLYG
UniProt Q16851: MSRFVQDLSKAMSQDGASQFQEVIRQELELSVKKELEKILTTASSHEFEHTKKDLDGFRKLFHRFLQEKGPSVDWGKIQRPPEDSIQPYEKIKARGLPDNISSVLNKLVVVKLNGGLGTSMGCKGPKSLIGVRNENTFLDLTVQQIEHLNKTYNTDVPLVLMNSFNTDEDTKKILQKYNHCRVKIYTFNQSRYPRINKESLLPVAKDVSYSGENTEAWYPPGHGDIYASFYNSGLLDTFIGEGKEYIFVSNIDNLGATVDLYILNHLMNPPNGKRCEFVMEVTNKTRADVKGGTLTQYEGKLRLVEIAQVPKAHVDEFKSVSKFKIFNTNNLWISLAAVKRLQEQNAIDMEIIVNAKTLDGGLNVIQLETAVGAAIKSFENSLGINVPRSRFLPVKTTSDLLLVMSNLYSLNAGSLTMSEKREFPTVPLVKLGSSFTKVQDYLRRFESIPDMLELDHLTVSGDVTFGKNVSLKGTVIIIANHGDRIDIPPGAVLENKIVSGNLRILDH
UniProt Q14694, whole entry, looked up: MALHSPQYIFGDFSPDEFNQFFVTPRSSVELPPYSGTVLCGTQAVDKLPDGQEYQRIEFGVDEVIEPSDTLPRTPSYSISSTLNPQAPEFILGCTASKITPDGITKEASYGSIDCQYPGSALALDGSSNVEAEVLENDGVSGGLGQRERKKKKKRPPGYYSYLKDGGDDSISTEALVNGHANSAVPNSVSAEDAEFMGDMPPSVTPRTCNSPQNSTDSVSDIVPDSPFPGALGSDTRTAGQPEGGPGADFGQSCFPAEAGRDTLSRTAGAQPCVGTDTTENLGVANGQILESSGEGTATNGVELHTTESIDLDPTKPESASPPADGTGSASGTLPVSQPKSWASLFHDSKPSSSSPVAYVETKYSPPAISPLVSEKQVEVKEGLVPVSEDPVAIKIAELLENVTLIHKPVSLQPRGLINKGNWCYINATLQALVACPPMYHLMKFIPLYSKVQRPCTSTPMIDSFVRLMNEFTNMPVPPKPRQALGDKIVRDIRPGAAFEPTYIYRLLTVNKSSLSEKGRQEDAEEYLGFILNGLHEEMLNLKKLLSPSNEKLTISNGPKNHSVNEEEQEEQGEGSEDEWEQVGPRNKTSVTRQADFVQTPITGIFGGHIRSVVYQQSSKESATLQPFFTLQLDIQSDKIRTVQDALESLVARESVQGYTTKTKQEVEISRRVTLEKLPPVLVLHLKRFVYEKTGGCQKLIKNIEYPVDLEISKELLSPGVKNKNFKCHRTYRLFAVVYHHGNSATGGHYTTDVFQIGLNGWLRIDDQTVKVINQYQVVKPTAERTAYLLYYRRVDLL
UniProt Q9NWZ5: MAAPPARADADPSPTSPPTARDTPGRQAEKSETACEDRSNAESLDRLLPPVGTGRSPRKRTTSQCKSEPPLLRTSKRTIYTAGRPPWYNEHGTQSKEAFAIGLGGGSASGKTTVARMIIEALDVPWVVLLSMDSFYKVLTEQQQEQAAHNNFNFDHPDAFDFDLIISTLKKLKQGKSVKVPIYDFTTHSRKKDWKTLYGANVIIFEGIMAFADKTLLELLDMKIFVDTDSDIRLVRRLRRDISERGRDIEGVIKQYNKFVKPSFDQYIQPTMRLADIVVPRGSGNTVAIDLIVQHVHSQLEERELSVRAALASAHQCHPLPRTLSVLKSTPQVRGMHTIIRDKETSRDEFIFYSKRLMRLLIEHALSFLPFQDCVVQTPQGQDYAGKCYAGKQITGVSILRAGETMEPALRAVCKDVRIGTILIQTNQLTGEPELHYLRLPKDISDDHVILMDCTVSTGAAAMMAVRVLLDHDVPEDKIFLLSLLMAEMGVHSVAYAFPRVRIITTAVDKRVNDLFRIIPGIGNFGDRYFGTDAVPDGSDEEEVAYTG
UniProt P06132: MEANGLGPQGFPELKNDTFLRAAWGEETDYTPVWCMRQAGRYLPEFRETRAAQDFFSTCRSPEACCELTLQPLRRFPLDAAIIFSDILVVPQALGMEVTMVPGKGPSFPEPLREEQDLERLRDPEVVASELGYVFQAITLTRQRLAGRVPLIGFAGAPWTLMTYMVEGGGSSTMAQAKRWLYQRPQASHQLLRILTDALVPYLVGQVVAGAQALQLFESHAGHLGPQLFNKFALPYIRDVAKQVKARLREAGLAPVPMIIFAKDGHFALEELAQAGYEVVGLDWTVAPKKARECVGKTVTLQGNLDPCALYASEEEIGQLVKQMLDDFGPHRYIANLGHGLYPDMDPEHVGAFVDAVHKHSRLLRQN

filanesib = compound: CON(C)C(=O)N1N=C(c2cc(F)ccc2F)S[C@@]1(CCCN)c1ccccc1 [filanesib]
Procedure, shortened: as §1

zotarolimus = compound: CO[C@H]1C[C@@H]2CC[C@@H](C)[C@@](O)(O2)C(=O)C(=O)N2CCCC[C@H]2C(=O)O[C@H]([C@H](C)C[C@@H]2CC[C@H](n3cnnn3)[C@H](OC)C2)CC(=O)[C@H](C)/C=C(\C)[C@@H](O)[C@@H](OC)C(=O)[C@H](C)C[C@H](C)/C=C/C=C/C=C/1C [zotarolimus]
Procedure, shortened: as §1

idasanutlin = compound: COc1cc(C(=O)O)ccc1NC(=O)[C@@H]1N[C@@H](CC(C)(C)C)[C@](C#N)(c2ccc(Cl)cc2F)[C@H]1c1cccc(Cl)c1F [idasanutlin]
Procedure, shortened: as §1

alisertib = compound: COc1cc(Nc2ncc3c(n2)-c2ccc(Cl)cc2C(c2c(F)cccc2OC)=NC3)ccc1C(=O)O [alisertib]
Procedure, shortened: as §1

[2] = compound: COc1cc2nc(-c3cc(F)ccc3O)nc(N[C@@H]3CNC[C@H]3C(C)(C)O)c2cc1OC
Procedure, shortened: as §1

gefitinib = compound: COc1cc2ncnc(Nc3ccc(F)c(Cl)c3)c2cc1OCCCN1CCOCC1 [gefitinib]
Procedure, shortened: as §1

[3] = compound: COc1cccc2cc(-c3nc([C@H]4CC[C@H](C(=O)O)CC4)n4ncnc(N)c34)[nH]c12
Procedure, shortened: as §1

lapatinib = compound: CS(=O)(=O)CCNCc1ccc(-c2ccc3ncnc(Nc4ccc(OCc5cccc(F)c5)c(Cl)c4)c3c2)o1 [lapatinib]
Procedure, shortened: as §1

pictilisib = compound: CS(=O)(=O)N1CCN(Cc2cc3nc(-c4cccc5[nH]ncc45)nc(N4CCOCC4)c3s2)CC1 [pictilisib]
Procedure, shortened: as §1

[4] = compound: CS(=O)(=O)c1ccc(-c2cnc(N)c(C(=O)Nc3ccccc3)n2)cc1
Procedure, shortened: as §1

crizotinib = compound: C[C@@H](Oc1cc(-c2cnn(C3CCNCC3)c2)cnc1N)c1c(Cl)ccc(F)c1Cl [crizotinib]
Procedure, shortened: as §1

[5] = compound: C[C@@H]1COCCN1C2=NC(=NC(=C2)C3(CC3)S(=O)(=O)C)C4=C5C=CNC5=CC=C4
Procedure, shortened: as §1

[6] = compound: C[C@H](C1=CC=C(C=C1)C(=O)NC2=C3C=CNC3=NC=C2)N
Procedure, shortened: as §1

duvelisib = compound: C[C@H](Nc1ncnc2nc[nH]c12)c1cc2cccc(Cl)c2c(=O)n1-c1ccccc1 [duvelisib]
Procedure, shortened: as §1

gandotinib = compound: Cc1cc(Nc2cc(CN3CCOCC3)c3nc(C)c(Cc4ccc(Cl)cc4F)n3n2)n[nH]1 [gandotinib]
Procedure, shortened: as §1

tozasertib = compound: Cc1cc(Nc2cc(N3CCN(C)CC3)nc(Sc3ccc(NC(=O)C4CC4)cc3)n2)n[nH]1 [tozasertib]
Procedure, shortened: as §1

[7] = compound: Cc1cc(SCc2sc(-c3ccc(C(F)(F)F)cc3)nc2C)ccc1OCC(=O)O
Procedure, shortened: as §1

doramapimod = compound: Cc1ccc(-n2nc(C(C)(C)C)cc2NC(=O)Nc2ccc(OCCN3CCOCC3)c3ccccc23)cc1 [doramapimod]
Procedure, shortened: as §1

ispinesib = compound: Cc1ccc(C(=O)N(CCCN)[C@@H](c2nc3cc(Cl)ccc3c(=O)n2Cc2ccccc2)C(C)C)cc1 [ispinesib]
Procedure, shortened: as §1

Measured: log2 fold change

USP39 (UniProt Q53GS9)
inactive: [1] -0.039 | filanesib 0.107 | zotarolimus -0.026 | idasanutlin 0.089 | alisertib -0.02 | [2] 0.064 | gefitinib 0.009 | [3] -0.008 | lapatinib 0.027 | pictilisib 0.009 | [4] 0.012 | crizotinib 0.013 | [5] -0.088 | [6] 0.016 | duvelisib -0.056 | gandotinib 0.076 | tozasertib -0.012 | [7] 0.02 | doramapimod -0.002 | ispinesib -0.013

UROS (UniProt P10746)
inactive: [1] 0.005 | filanesib -0.005 | zotarolimus 0.101 | idasanutlin -0.019 | alisertib -0.064 | [2] 0.049 | gefitinib 0.001 | [3] -0.075 | lapatinib -0.042 | pictilisib -0.042 | [4] 0.041 | crizotinib -0.115 | [5] 0.052 | [6] -0.03 | duvelisib 0.125 | gandotinib 0.011 | tozasertib 0.01 | [7] 0.035 | doramapimod -0.041 | ispinesib 0.026

UBQLN4 (UniProt Q9NRR5)
inactive: [1] 0.091 | filanesib -0.074 | zotarolimus 0.04 | idasanutlin 0.003 | alisertib -0.043 | [2] -0.043 | gefitinib 0.043 | [3] 0.044 | lapatinib 0.024 | pictilisib 0.031 | [4] -0.084 | crizotinib 0.046 | [5] 0.056 | [6] -0.038 | duvelisib 0.009 | gandotinib 0.024 | tozasertib 0.007 | [7] -0.032 | doramapimod 0.01 | ispinesib 0.027

VCP (UniProt P55072)
inactive: [1] -0.022 | filanesib -0.022 | zotarolimus -0.018 | idasanutlin -0.001 | alisertib -0.067 | [2] -0.001 | gefitinib -0.012 | [3] 0.042 | lapatinib -0.01 | pictilisib 0.008 | [4] -0.005 | crizotinib 0.041 | [5] 0.002 | [6] -0.026 | duvelisib 0.011 | gandotinib 0.022 | tozasertib -0.013 | [7] -0.017 | doramapimod 0.003 | ispinesib 0.033

UGP2 (UniProt Q16851)
inactive: [1] 0.018 | filanesib -0.035 | zotarolimus -0.01 | idasanutlin -0.025 | alisertib -0.039 | [2] 0.019 | gefitinib 0.016 | [3] 0.029 | lapatinib 0 | pictilisib 0.133 | [4] 0.01 | crizotinib 0.028 | [5] 0.026 | [6] -0.028 | duvelisib 0.03 | gandotinib -0.014 | tozasertib -0.008 | [7] -0.024 | doramapimod -0.024 | ispinesib 0.072

USP10 isoform 2 (UniProt Q14694)
inactive: [1] -0.024 | filanesib 0.086 | zotarolimus 0.02 | idasanutlin 0.045 | alisertib -0.089 | [2] 0.019 | gefitinib -0.006 | [3] -0.008 | lapatinib 0.002 | pictilisib -0.026 | [4] -0.041 | crizotinib 0.01 | [5] -0.119 | [6] 0.055 | duvelisib -0.009 | gandotinib 0.007 | tozasertib -0.015 | [7] 0.042 | doramapimod -0.014 | ispinesib -0.027

UCKL1 (UniProt Q9NWZ5)
inactive: [1] -0.05 | filanesib -0.064 | zotarolimus -0.028 | idasanutlin -0.126 | alisertib -0.053 | [2] 0.138 | gefitinib 0.028 | [3] 0.066 | lapatinib -0.06 | pictilisib 0.053 | [4] 0.057 | crizotinib 0.026 | [5] 0.062 | [6] 0.017 | duvelisib 0.107 | gandotinib 0.054 | tozasertib 0 | [7] 0.125 | doramapimod 0.032 | ispinesib 0.034

UROD (UniProt P06132)
inactive: [1] 0.048 | filanesib 0.007 | zotarolimus -0.015 | idasanutlin 0.013 | alisertib -0.125 | [2] -0.073 | gefitinib -0.021 | [3] 0.016 | lapatinib 0.044 | pictilisib -0.026 | [4] 0.119 | crizotinib -0.008 | [5] 0.022 | [6] -0.017 | duvelisib 0 | gandotinib 0.03 | tozasertib -0.042 | [7] -0.06 | doramapimod 0.027 | ispinesib -0.011

— the supplement of paper PMC10849652
